Laboratory results as given in patent US20030036169A1.
These are yes or no findings as the source states them, for the method shown. Some entries that bind do so weakly or less than the wild type.

Protein sequences, listed by entry. Tags and fused reporters are not part of them. Lines headed by an entry give the natural chain unless they say otherwise; changes in a name come on top.
UniProt O70248: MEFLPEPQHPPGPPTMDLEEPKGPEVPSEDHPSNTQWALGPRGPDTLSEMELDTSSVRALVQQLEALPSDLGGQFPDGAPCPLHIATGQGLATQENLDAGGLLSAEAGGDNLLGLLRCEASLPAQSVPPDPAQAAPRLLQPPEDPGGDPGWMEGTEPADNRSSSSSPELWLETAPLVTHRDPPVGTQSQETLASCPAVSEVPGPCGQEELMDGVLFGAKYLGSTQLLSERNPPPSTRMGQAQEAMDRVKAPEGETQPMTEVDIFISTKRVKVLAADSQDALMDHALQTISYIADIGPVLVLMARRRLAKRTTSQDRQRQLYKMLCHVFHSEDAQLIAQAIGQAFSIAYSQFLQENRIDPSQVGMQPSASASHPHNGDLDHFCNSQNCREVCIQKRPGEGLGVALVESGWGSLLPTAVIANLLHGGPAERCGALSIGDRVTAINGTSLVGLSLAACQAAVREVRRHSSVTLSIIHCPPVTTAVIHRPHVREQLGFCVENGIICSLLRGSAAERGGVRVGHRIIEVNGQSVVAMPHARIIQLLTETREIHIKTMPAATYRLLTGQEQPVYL
UniProt O35430: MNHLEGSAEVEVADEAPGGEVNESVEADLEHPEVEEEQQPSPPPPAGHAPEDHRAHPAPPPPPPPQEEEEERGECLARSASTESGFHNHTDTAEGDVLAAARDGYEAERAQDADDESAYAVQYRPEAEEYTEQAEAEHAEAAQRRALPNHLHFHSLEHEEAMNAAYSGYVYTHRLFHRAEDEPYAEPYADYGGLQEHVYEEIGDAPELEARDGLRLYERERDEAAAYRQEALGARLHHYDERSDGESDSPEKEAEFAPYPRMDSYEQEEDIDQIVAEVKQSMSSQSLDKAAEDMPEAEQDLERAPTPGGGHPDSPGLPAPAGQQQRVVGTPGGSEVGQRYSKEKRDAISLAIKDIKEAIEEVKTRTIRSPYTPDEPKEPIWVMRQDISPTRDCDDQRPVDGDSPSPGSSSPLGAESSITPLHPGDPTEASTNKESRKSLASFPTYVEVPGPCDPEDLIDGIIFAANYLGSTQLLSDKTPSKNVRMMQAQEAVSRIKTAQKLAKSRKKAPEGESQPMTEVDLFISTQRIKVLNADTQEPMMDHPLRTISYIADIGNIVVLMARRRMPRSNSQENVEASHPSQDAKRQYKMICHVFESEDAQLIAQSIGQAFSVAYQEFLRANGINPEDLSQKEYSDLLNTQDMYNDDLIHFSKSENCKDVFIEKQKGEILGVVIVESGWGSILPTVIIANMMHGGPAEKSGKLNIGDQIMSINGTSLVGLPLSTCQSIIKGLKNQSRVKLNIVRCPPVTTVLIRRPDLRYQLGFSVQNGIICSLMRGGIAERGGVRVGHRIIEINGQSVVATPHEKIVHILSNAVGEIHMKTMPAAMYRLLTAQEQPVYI
UniProt O35431: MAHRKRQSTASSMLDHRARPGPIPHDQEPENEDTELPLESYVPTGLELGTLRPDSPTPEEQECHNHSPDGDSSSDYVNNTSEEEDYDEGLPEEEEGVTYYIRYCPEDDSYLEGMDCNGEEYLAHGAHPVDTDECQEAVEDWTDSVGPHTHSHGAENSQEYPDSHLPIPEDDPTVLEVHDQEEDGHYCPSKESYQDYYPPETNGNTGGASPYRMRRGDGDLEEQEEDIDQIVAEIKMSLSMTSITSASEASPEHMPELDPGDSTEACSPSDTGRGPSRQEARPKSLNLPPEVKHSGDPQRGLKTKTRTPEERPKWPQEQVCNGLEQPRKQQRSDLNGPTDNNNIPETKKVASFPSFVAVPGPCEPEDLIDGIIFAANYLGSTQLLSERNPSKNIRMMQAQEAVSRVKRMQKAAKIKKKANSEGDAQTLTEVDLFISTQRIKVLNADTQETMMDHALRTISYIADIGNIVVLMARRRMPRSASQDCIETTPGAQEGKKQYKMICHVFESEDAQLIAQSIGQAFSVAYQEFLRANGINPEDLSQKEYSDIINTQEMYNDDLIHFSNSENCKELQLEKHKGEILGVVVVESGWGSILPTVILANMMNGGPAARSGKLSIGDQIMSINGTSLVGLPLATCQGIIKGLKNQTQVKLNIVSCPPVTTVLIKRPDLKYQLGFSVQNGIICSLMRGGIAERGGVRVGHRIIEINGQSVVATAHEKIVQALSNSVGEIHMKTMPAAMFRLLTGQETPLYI

How the values were obtained:
[1] = molecular target: Mint 3 (rat) (UniProt O70248); test: soluble peptide (0.1 or 1.0 mg/ml) competing with the immobilized APP tail peptide for rat brain Mint 3
[2] = molecular target: Mint 1 (rat) (UniProt O35430); test: soluble peptide (0.1 or 1.0 mg/ml) competing with the immobilized APP tail peptide for rat brain Mint 1
[3] = molecular target: Mint 2 (rat) (UniProt O35431); test: soluble peptide (0.1 or 1.0 mg/ml) competing with the immobilized APP tail peptide for rat brain Mint 2

Measured: binding

QNGYENPTYKFFEQ [soluble peptide …, native APP NPTY motif]
binds: all assays above
